Assay results reported in article PMC4022105.

What was measured:
[1] = molecular target: T1, Desmoglein 3 (Dsg3), endogenous (human (endogenous in HaCaT and human breast skin)) (UniProt P32926); test: co-IP; HaCaT lysate in RIPA buffer (1% NP-40), antibody on Dynabeads, overnight at 4 °C; pulled down with Dsg3 antibody (legend; the text says anti-actin antibody), Western blot
T1 sequence: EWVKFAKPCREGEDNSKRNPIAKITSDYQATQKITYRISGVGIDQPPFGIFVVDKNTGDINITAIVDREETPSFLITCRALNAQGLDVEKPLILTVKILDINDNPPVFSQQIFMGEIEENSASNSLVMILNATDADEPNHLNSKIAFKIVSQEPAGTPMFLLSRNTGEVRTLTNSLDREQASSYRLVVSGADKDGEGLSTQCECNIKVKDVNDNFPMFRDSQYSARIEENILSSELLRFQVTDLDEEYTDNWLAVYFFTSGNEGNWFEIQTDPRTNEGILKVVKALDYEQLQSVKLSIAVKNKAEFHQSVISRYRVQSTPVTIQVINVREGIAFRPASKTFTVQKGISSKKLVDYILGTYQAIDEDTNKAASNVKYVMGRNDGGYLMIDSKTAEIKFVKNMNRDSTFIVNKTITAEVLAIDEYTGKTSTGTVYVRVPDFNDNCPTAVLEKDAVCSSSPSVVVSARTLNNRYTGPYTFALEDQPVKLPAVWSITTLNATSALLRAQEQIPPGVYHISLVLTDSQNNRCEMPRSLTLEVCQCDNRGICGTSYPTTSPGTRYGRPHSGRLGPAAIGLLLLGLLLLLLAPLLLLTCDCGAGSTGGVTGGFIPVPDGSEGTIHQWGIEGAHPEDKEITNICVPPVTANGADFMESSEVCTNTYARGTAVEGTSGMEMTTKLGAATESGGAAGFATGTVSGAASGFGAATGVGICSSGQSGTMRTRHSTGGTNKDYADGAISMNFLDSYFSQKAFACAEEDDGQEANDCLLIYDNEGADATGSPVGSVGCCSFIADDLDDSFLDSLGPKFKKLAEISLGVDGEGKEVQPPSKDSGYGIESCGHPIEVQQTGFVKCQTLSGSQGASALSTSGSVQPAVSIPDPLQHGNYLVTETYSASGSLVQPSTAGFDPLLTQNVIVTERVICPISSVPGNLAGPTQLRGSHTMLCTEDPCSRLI

[2] = molecular target: T1, Desmoglein 3 (Dsg3), endogenous (human (endogenous in HaCaT and human breast skin)); test: co-IP; Triton X-100 soluble fraction of HaCaT cells (1% Triton X-100 lysis buffer, 150 mM NaCl, EGTA, EDTA), pulled down with mouse anti-Dsg3 antibody, Western blot
[3] = molecular target: T1, Desmoglein 3 (Dsg3), endogenous (human (endogenous in HaCaT and human breast skin)); test: co-IP; lysate of human breast skin epidermis in RIPA buffer, antibody on Dynabeads, overnight at 4 °C; pulled down with Dsg3 antibody (legend; the text says anti-actin antibody), Western blot

- binding [1]: binds
- binding [2]: binds
- binding [3]: binds
Substance: E-cadherin, endogenous

These are yes or no findings as the source states them, for the method shown. In cells and extracts the contact can be indirect. Binding calls can cover weak binding; strength is not graded here.
